Assay results from publication doi:10.1101/2023.01.01.522328.
No constants are given. Whether binding was seen depends on the method and setting. Binding seen in cells or lysates may run through a third protein. Some entries that bind do so weakly or less than the wild type.

Target: SARS-CoV-2 non-structural protein 2 (Flag-NSP2) (SARS-CoV-2) (UniProt P0DTD1)
Assay: co-IP

**Q.** With “Argonaute 2 (AGO2) (from UniProt Q9UKV8 1-859)” as the substance, how does the binding read?
**A.** binds
